Assay results reported in US20170189504A1, “NOVEL PEPTIDES AND COMBINATION OF PEPTIDES FOR USE IN IMMUNOTHERAPY AGAINST VARIOUS CANCERS” (immatics biotechnologies GmbH, priority 2015, published 2017).

Legend:
source genes (mRNA) [1] = assay: Expression profiling of source genes by in-house RNASeq of tumor and normal tissues (Table 18, FIG. 2); design: species or system human; key: very highly over-expressed in tumors compared to a panel of normal tissues (+++); highly over-expressed in tumors compared to a panel of normal tissues (++); over-expressed in tumors compared to a panel of normal tissues (+); details: source gene of peptide; for Expression score OC: ovarian cancer (N = 12) vs panel of normal tissues
HLA-A*02 = assay: Identification and relative LC-MS quantitation of HLA-A*02-presented tumor-associated peptides on tissue samples (presentation profiles, Tables 13A, 13B, 15, FIG. 1); design: species or system human; key to Presentation score NHL / Presentation score CLL / Presentation score BRCA / Presentation score AML / Presentation score GB / Presentation score NSCLC / Presentation score GBC_CCC / Presentation score UEC / Presentation score MEL / Presentation score OSCAR / Presentation score GC / Presentation score UBC / Presentation score OC / Presentation score RCC / Presentation score CRC / Presentation score PCA / Presentation score HCC / Presentation score PC / Presentation score SCLC: specifically presented on tumors (++++); very highly over-presented on tumors compared to a panel of normal tissues (+++); highly over-presented on tumors compared to a panel of normal tissues (++); over-presented on tumors compared to a panel of normal tissues (+); details: for Peptide Presentation on cancer entities: HLA-A*02-binding tumor-associated peptides
source genes (mRNA) [2] = assay: Gene and exon expression of source genes, TCGA tumor samples compared with normal tissue samples (Lonsdale, 2013) (Table 17); design: species or system human
[3] = Table 13A, cancer entities on which the peptide was found presented

155: peptide found in PRKDC (gene looked up) (LLNPVVEFV; listed as Homo sapiens) [compound 155]
Expression score BRCA (source genes (mRNA) [1]; BRCA tumors vs panel of normal tissues): +
Expression score AML (source genes (mRNA) [1]; acute myeloid leukemia (N = 11) vs panel of normal tissues): +
Expression score CRC (source genes (mRNA) [1]; colorectal cancer (N = 20) vs panel of normal tissues): +
Expression score OSCAR (source genes (mRNA) [1]; esophageal cancer incl. gastric-esophageal junction (N = 11) vs panel of normal tissues): +
Expression score GBC_CCC (source genes (mRNA) [1]; gallbladder adenocarcinoma and cholangiocarcinoma (N = 3) vs panel of normal tissues): +
Expression score GB (source genes (mRNA) [1]; glioblastoma (N = 24) vs panel of normal tissues): +
Expression score NHL (source genes (mRNA) [1]; non-Hodgkin lymphoma (N = 10) vs panel of normal tissues): +
Expression score NSCLC (source genes (mRNA) [1]; non-small cell lung cancer (N = 11) vs panel of normal tissues): +
Expression score OC (source genes (mRNA) [1]): +
Expression score SCLC (source genes (mRNA) [1]; small cell lung cancer (N = 10) vs panel of normal tissues): +
Presentation score CLL (HLA-A*02; HLA-A*02 peptides, chronic lymphocytic leukemia (N = 17) vs panel of normal tissues (N = 262)): +++
Presentation score GBC_CCC (HLA-A*02; HLA-A*02 peptides, gallbladder adenocarcinoma and cholangiocarcinoma (N = 6) vs panel of normal tissues (N = 262)): ++
Presentation score NHL (HLA-A*02; HLA-A*02 peptides, non-Hodgkin lymphoma (N = 18) vs panel of normal tissues (N = 262)): +
Peptide Presentation on cancer entities (HLA-A*02; [3]): CLL, OC, GBC_CCC, NHL
Peptide Presentation on cancer entities (HLA-A*02; Table 13B, presentation on additional cancer entities): NSCLC, HCC, BRCA, CRC, HNSCC
Over-expression category of source gene (target coverage), BLCA (source genes (mRNA) [2]; BLCA = Bladder urothelial carcinoma (N = 408), same cutoff): B (>= 20% of tumors above the cutoff, but <50%)
Over-expression category of source gene (target coverage), BRCA (source genes (mRNA) [2]; BRCA = Breast cancer (N = 1104), tumors more than 2-fold above highest 75% percentile of normal tissues): A (>=50% of tumors above the cutoff)
Over-expression category of source gene (target coverage), CHOL (source genes (mRNA) [2]; CHOL = Cholangiocarcinoma (N = 36), same cutoff): C (>=5% of tumors above the cutoff, but <20%)
Over-expression category of source gene (target coverage), COAD (source genes (mRNA) [2]; COAD = Colon and rectal adenocarcinoma (N = 462), same cutoff): B (>= 20% of tumors above the cutoff, but <50%)
Over-expression category of source gene (target coverage), DLBC (source genes (mRNA) [2]; DLBC = Lymphoid neoplasm diffuse large B-cell lymphoma (N = 48), same cutoff): C (>=5% of tumors above the cutoff, but <20%)
Over-expression category of source gene (target coverage), ESCA (source genes (mRNA) [2]; ESCA = Esophageal cancer (N = 185), same cutoff): A (>=50% of tumors above the cutoff)
Over-expression category of source gene (target coverage), GBM (source genes (mRNA) [2]; GBM = Glioblastoma multiforme (N = 169), same cutoff): C (>=5% of tumors above the cutoff, but <20%)
Over-expression category of source gene (target coverage), KICH (source genes (mRNA) [2]; KICH = Kidney chromophobe (N = 66), same cutoff): C (>=5% of tumors above the cutoff, but <20%)
Over-expression category of source gene (target coverage), KIRC (source genes (mRNA) [2]; KIRC = Clear cell kidney carcinoma (N = 534), same cutoff): C (>=5% of tumors above the cutoff, but <20%)
Over-expression category of source gene (target coverage), KIRP (source genes (mRNA) [2]; KIRP = Papillary kidney carcinoma (N = 291), same cutoff): C (>=5% of tumors above the cutoff, but <20%)
Over-expression category of source gene (target coverage), LAML (source genes (mRNA) [2]; LAML = Acute Myeloid Leukemia (N = 173), same cutoff): A (>=50% of tumors above the cutoff)
Over-expression category of source gene (target coverage), LGG (source genes (mRNA) [2]; LGG = Lower grade glioma (N = 534), same cutoff): B (>= 20% of tumors above the cutoff, but <50%)
Over-expression category of source gene (target coverage), LUAD (source genes (mRNA) [2]; LUAD = Lung adenocarcinoma (N = 517), same cutoff): B (>= 20% of tumors above the cutoff, but <50%)
Over-expression category of source gene (target coverage), LUSC (source genes (mRNA) [2]; LUSC = Lung squamous cell carcinoma (N = 503), same cutoff): A (>=50% of tumors above the cutoff)
Over-expression category of source gene (target coverage), OV (source genes (mRNA) [2]; OV = Ovarian serous cystadenocarcinoma (N = 309), same cutoff): B (>= 20% of tumors above the cutoff, but <50%)
Over-expression category of source gene (target coverage), PAAD (source genes (mRNA) [2]; PAAD = Pancreatic ductal adenocarcinoma (N = 179), same cutoff): C (>=5% of tumors above the cutoff, but <20%)
Over-expression category of source gene (target coverage), PRAD (source genes (mRNA) [2]; PRAD = Prostate adenocarcinoma (N = 498), same cutoff): C (>=5% of tumors above the cutoff, but <20%)
Over-expression category of source gene (target coverage), READ (source genes (mRNA) [2]; READ = Colon and rectal adenocarcinoma (N = 167), same cutoff): B (>= 20% of tumors above the cutoff, but <50%)
Over-expression category of source gene (target coverage), SKCM (source genes (mRNA) [2]; SKCM = Skin cutaneous melanoma (N = 473), same cutoff): A (>=50% of tumors above the cutoff)
Over-expression category of source gene (target coverage), STAD (source genes (mRNA) [2]; STAD = Stomach adenocarcinoma (N = 415), same cutoff): A (>=50% of tumors above the cutoff)
Over-expression category of source gene (target coverage), UCEC (source genes (mRNA) [2]; UCEC = Uterine corpus endometrial carcinoma (N = 546), same cutoff): C (>=5% of tumors above the cutoff, but <20%)

81: peptide found in ALG8 (gene looked up) (NALDKVLSV; listed as Homo sapiens) [compound 81]
Expression score HCC (source genes (mRNA) [1]; hepatocellular carcinoma (N = 15) vs panel of normal tissues): +
Expression score OC (source genes (mRNA) [1]): +
Presentation score OSCAR (HLA-A*02; HLA-A*02 peptides, esophageal cancer, including cancer of the gastric-esophageal junction (N = 17) vs panel of normal tissues (N = 262)): ++++
Presentation score GC (HLA-A*02; HLA-A*02 peptides, gastric cancer (N = 29) vs panel of normal tissues (N = 262)): ++++
Presentation score NSCLC (HLA-A*02; HLA-A*02 peptides, non-small cell lung cancer (N = 90) vs panel of normal tissues (N = 262)): ++++
Peptide Presentation on cancer entities (HLA-A*02; [3]): GC, NSCLC, OSCAR
Target coverage: over-expression category of source gene, LAML (source genes (mRNA) [2]; Acute Myeloid Leukemia (N = 173), cutoff more than 2-fold above highest 75% percentile of normal tissue samples): A (>=50% of tumors above the cutoff)
Target coverage: over-expression category of source gene, BLCA (source genes (mRNA) [2]; Bladder urothelial carcinoma (N = 408), cutoff more than 2-fold above highest 75% percentile of normal tissue samples): A (>=50% of tumors above the cutoff)
Target coverage: over-expression category of source gene, BRCA (source genes (mRNA) [2]; Breast cancer (N = 1104), cutoff more than 2-fold above highest 75% percentile of high and medium risk normal tissue samples): A (>=50% of tumors above the cutoff)
Target coverage: over-expression category of source gene, CHOL (source genes (mRNA) [2]; Cholangiocarcinoma (N = 36), cutoff more than 2-fold above highest 75% percentile of normal tissue samples): A (>=50% of tumors above the cutoff)
Target coverage: over-expression category of source gene, KIRC (source genes (mRNA) [2]; Clear cell kidney carcinoma (N = 534), cutoff more than 2-fold above highest 75% percentile of normal tissue samples): A (>=50% of tumors above the cutoff)
Target coverage: over-expression category of source gene, READ (source genes (mRNA) [2]; Colon and rectal adenocarcinoma (N = 167), cutoff more than 2-fold above highest 75% percentile of normal tissue samples): A (>=50% of tumors above the cutoff)
Target coverage: over-expression category of source gene, COAD (source genes (mRNA) [2]; Colon and rectal adenocarcinoma (N = 462), cutoff more than 2-fold above highest 75% percentile of normal tissue samples): A (>=50% of tumors above the cutoff)
Target coverage: over-expression category of source gene, ESCA (source genes (mRNA) [2]; Esophageal cancer (N = 185), cutoff more than 2-fold above highest 75% percentile of normal tissue samples): A (>=50% of tumors above the cutoff)
Target coverage: over-expression category of source gene, GBM (source genes (mRNA) [2]; Glioblastoma multiforme (N = 169), cutoff more than 2-fold above highest 75% percentile of normal tissue samples): A (>=50% of tumors above the cutoff)
Target coverage: over-expression category of source gene, KICH (source genes (mRNA) [2]; Kidney chromophobe (N = 66), cutoff more than 2-fold above highest 75% percentile of normal tissue samples): A (>=50% of tumors above the cutoff)
Target coverage: over-expression category of source gene, LIHC (source genes (mRNA) [2]; Liver hepatocellular carcinoma (N = 374), cutoff more than 2-fold above highest 75% percentile of normal tissue samples): A (>=50% of tumors above the cutoff)
Target coverage: over-expression category of source gene, LGG (source genes (mRNA) [2]; Lower grade glioma (N = 534), cutoff more than 2-fold above highest 75% percentile of normal tissue samples): B (>= 20% of tumors above the cutoff, but <50%)
Target coverage: over-expression category of source gene, LUAD (source genes (mRNA) [2]; Lung adenocarcinoma (N = 517), cutoff more than 2-fold above highest 75% percentile of normal tissue samples): A (>=50% of tumors above the cutoff)
Target coverage: over-expression category of source gene, LUSC (source genes (mRNA) [2]; Lung squamous cell carcinoma (N = 503), cutoff more than 2-fold above highest 75% percentile of normal tissue samples): A (>=50% of tumors above the cutoff)
Target coverage: over-expression category of source gene, DLBC (source genes (mRNA) [2]; Lymphoid neoplasm diffuse large B-cell lymphoma (N = 48), cutoff more than 2-fold above highest 75% percentile of normal tissue samples): A (>=50% of tumors above the cutoff)
Target coverage: over-expression category of source gene, OV (source genes (mRNA) [2]; Ovarian serous cystadenocarcinoma (N = 309), cutoff more than 2-fold above highest 75% percentile of normal tissue samples): A (>=50% of tumors above the cutoff)
Target coverage: over-expression category of source gene, PAAD (source genes (mRNA) [2]; Pancreatic ductal adenocarcinoma (N = 179), cutoff more than 2-fold above highest 75% percentile of normal tissue samples): A (>=50% of tumors above the cutoff)
Target coverage: over-expression category of source gene, KIRP (source genes (mRNA) [2]; Papillary kidney carcinoma (N = 291), cutoff more than 2-fold above highest 75% percentile of normal tissue samples): A (>=50% of tumors above the cutoff)
Target coverage: over-expression category of source gene, PRAD (source genes (mRNA) [2]; Prostate adenocarcinoma (N = 498), cutoff more than 2-fold above highest 75% percentile of normal tissue samples): A (>=50% of tumors above the cutoff)
Target coverage: over-expression category of source gene, SKCM (source genes (mRNA) [2]; Skin cutaneous melanoma (N = 473), cutoff more than 2-fold above highest 75% percentile of normal tissue samples): A (>=50% of tumors above the cutoff)
Target coverage: over-expression category of source gene, STAD (source genes (mRNA) [2]; Stomach adenocarcinoma (N = 415), cutoff more than 2-fold above highest 75% percentile of normal tissue samples): A (>=50% of tumors above the cutoff)
Target coverage: over-expression category of source gene, UCEC (source genes (mRNA) [2]; Uterine corpus endometrial carcinoma (N = 546), cutoff more than 2-fold above highest 75% percentile of normal tissue samples): A (>=50% of tumors above the cutoff)

For some of these results: For expression read-outs the peptide stands for its source gene, whose mRNA was measured; the gene is not named for every peptide.
